The targets with a hit were mostly taken out for another list; the other results follow. The data scatter; read single values as rough. This is a selection; strong and weak results do not stand in their true shares.
compound: COC(=O)/C=C/c1ccccc1 [methyl cinnamate]; experiment: log2 ratio of iodoacetamide-alkyne labeling of the cysteine site, DMSO over compound (competition); higher = stronger covalent engagement of the cysteine by the compound, active = 1 or more; conditions: 500 µM; treatment time 1 h; system: HEK293T cell lysate
How it was run: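 Reporter intensities give each cysteine's log2 competition ratio as the mean of control channels over the mean of compound channels. The samples were HEK293T lysate (2 mg/mL) given vehicle or electrophile (500 µM, 1 h, ambient temperature), then iodoacetamide alkyne (1 h), followed by click coupling to sCIP-TMT reagents, pooling, trypsin digestion overnight at 37 °C, streptavidin enrichment, acid elution, Orbitrap Eclipse LC-MS/MS with FAIMS and FragPipe quantification. Duplicate channels and three replicates were run, and cysteines quantified in only one replicate were discarded.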

Sequences of proteins named here, by UniProt entry; tags and fusion partners are left off. A change or cut given only in a name is not applied to a line headed by its entry.
UniProt P49792, whole entry, looked up: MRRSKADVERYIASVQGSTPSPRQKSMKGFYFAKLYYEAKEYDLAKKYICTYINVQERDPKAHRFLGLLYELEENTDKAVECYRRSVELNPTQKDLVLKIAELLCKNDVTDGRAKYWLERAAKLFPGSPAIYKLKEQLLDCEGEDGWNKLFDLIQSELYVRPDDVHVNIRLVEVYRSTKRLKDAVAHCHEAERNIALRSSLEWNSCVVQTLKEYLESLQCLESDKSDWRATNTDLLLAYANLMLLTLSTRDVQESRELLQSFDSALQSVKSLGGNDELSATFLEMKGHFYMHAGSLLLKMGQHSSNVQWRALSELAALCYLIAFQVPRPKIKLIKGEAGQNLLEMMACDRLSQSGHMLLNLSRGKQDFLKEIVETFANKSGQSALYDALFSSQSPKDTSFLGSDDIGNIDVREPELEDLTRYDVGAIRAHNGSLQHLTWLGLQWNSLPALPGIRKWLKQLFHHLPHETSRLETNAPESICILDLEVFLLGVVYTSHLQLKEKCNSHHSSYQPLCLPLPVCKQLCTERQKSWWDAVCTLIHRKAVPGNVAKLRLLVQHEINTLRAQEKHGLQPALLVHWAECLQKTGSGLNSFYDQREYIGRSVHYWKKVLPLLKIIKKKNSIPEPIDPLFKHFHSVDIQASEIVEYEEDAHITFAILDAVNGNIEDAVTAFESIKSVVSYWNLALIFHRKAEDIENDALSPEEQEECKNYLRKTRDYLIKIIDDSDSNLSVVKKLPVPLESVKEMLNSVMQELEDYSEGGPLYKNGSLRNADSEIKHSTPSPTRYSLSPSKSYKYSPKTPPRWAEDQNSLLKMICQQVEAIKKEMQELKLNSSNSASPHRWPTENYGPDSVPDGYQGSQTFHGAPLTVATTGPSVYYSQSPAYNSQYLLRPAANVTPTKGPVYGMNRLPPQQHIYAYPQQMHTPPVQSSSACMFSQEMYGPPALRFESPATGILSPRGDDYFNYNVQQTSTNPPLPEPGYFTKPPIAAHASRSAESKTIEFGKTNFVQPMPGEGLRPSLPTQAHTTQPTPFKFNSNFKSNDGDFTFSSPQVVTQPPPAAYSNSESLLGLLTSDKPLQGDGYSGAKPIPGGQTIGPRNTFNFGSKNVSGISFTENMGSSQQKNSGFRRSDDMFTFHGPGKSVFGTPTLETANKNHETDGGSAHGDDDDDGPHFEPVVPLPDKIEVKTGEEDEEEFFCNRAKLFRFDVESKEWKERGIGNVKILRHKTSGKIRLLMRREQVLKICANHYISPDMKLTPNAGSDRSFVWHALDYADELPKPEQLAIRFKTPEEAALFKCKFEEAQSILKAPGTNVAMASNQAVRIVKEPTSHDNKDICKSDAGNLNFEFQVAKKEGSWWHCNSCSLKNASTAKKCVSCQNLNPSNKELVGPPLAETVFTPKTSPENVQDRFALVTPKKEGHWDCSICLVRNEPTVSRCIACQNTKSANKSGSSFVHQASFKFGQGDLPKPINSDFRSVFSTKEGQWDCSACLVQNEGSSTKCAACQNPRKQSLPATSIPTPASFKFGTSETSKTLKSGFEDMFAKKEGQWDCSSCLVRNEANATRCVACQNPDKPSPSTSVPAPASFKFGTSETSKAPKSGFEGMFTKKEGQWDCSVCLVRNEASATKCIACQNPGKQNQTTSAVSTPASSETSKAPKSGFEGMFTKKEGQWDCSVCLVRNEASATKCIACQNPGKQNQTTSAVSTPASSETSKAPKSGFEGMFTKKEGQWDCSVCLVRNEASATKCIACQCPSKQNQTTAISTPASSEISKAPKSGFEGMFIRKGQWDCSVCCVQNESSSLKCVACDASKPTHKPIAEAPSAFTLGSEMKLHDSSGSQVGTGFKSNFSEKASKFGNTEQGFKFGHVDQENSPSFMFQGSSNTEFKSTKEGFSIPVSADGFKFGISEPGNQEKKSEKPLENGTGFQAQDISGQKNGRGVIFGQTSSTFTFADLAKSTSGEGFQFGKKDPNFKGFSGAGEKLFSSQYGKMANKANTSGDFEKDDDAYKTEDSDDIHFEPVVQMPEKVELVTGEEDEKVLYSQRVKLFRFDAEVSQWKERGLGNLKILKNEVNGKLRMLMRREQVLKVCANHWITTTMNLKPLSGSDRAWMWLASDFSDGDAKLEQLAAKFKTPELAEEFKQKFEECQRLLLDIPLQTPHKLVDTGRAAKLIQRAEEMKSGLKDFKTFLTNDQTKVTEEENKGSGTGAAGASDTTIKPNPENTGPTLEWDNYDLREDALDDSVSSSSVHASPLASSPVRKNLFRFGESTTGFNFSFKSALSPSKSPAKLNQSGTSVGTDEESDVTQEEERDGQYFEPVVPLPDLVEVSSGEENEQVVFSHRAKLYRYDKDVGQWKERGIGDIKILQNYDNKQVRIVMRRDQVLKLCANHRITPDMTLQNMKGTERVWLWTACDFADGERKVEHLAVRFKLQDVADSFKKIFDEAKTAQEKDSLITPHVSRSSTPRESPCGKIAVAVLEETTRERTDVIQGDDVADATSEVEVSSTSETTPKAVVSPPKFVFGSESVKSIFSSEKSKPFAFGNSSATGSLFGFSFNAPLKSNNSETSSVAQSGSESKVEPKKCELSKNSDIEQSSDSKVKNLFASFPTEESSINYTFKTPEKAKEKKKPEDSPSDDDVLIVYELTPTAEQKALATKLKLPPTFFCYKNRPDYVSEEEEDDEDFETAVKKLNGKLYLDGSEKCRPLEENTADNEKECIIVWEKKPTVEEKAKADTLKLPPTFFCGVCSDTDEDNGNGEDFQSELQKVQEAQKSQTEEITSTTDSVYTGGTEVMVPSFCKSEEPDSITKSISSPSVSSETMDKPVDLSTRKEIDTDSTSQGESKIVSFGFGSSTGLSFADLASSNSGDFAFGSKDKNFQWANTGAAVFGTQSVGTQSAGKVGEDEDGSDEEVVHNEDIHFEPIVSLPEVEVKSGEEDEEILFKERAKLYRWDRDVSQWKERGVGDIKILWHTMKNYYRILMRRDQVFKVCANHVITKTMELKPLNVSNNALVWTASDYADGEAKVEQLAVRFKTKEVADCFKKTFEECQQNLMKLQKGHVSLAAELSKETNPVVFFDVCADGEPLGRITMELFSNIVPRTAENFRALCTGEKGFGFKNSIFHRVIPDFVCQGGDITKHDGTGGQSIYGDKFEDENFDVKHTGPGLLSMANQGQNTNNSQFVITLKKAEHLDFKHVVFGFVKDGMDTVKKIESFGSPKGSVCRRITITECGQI
UniProt P48643, whole entry, looked up: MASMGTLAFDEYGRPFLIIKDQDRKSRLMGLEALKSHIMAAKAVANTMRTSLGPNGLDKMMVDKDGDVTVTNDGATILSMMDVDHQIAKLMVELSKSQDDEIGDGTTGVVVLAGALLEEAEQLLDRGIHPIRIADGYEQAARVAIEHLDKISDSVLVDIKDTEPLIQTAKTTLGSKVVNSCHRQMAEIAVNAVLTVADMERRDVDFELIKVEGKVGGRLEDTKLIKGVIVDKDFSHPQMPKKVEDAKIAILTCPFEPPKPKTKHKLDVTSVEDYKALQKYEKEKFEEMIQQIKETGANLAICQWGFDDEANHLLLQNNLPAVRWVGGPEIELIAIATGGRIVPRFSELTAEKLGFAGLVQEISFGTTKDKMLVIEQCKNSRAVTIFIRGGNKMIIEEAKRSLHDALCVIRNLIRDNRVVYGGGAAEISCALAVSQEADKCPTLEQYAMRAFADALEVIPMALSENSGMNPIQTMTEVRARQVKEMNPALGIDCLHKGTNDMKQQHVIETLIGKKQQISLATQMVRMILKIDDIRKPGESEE
UniProt P45880: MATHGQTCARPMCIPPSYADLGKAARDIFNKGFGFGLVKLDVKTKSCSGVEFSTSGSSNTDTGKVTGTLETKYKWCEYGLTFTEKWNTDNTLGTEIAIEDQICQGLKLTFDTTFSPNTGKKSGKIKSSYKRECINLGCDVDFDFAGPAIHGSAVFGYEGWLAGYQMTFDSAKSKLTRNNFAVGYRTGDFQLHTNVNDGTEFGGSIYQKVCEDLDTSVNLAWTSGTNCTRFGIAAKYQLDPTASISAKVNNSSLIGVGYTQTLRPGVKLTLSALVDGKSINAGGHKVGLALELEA
UniProt P49327, whole entry, looked up: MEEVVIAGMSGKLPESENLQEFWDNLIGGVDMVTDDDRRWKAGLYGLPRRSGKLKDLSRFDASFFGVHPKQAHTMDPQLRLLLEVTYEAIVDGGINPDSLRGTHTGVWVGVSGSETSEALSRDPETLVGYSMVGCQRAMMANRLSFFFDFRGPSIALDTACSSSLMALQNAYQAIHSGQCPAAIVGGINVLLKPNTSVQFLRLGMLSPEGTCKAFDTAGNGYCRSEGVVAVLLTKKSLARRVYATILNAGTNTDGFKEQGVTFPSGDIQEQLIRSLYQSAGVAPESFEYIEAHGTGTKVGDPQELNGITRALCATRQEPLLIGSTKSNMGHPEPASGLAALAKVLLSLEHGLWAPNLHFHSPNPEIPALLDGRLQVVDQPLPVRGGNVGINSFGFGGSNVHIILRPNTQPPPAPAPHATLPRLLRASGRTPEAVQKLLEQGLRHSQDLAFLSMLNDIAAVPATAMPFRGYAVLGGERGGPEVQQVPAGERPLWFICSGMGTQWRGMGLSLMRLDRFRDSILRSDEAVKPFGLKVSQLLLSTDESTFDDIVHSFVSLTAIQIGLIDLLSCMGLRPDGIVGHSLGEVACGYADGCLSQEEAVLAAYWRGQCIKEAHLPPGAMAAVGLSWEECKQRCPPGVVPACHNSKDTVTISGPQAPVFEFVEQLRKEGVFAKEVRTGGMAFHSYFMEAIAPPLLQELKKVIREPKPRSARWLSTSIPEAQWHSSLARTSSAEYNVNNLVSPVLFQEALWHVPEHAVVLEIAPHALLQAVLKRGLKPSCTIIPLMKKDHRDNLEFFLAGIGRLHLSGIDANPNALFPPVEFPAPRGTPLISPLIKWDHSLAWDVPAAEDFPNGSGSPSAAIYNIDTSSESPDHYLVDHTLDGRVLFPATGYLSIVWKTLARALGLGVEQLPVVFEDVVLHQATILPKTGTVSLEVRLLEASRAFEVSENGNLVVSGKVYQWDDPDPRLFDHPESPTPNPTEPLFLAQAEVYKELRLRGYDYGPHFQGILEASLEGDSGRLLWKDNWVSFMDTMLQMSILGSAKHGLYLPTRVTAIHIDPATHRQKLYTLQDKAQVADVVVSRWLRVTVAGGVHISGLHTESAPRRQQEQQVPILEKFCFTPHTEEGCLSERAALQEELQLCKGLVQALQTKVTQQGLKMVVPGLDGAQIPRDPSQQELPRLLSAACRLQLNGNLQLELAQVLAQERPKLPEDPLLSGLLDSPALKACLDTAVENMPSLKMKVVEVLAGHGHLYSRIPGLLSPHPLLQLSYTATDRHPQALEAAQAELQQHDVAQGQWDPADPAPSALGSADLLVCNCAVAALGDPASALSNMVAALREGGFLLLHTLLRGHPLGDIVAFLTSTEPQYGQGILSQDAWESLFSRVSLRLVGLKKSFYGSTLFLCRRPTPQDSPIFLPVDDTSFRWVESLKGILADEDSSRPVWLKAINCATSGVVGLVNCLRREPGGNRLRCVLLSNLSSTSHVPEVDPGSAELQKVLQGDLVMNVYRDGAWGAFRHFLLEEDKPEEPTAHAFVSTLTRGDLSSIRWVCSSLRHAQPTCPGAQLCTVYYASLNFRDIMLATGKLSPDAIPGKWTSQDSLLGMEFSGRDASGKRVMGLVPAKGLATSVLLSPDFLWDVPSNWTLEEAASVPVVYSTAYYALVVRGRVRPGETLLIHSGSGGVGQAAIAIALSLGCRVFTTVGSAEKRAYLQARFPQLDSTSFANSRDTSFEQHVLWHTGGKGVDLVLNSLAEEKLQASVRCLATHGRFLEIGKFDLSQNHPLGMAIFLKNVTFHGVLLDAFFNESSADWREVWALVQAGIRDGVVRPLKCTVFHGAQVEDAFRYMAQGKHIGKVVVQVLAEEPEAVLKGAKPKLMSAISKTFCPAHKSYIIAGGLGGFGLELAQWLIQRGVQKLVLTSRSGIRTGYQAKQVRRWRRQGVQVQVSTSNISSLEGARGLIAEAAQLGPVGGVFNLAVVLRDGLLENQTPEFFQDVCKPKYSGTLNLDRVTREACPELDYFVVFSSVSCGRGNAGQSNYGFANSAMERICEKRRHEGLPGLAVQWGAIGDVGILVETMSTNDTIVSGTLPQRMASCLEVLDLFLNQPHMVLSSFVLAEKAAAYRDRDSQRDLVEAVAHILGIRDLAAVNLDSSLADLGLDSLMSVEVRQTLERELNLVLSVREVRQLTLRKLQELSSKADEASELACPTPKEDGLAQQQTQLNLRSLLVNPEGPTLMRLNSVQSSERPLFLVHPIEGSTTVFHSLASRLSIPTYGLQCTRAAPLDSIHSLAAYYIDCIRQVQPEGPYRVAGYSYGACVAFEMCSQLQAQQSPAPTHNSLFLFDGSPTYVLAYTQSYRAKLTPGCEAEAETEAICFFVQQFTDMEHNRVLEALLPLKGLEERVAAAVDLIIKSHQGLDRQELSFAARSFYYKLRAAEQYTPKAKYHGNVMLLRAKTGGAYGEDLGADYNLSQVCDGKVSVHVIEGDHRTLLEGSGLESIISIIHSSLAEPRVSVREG

log2 ratio of iodoacetamide-alkyne labeling, inactive:
RANBP2 C105 (UniProt P49792) 0.238
CCT5 C407 (UniProt P48643) -0.0265
MARCKSL1 C134 (UniProt P49006) 0.363
LIG3 C929 (UniProt P49916) 0.316
INPP1 C10 (UniProt P49441) -0.132
RANBP2 C206 (UniProt P49792) 0.19
UniProt P46734_C305 -0.355
NASP C254 (UniProt P49321) -0.119
VDAC2 C227 (UniProt P45880) 0.0403
GSS C294 (UniProt P48637) 0.377
CCT3 C279 (UniProt P49368) 0.206
TSC2 C414 (UniProt P49815) -0.0403
UTRN C862 (UniProt P46939) 0.304
FASN C1548 (UniProt P49327) 0.226
CCT5 C440 (UniProt P48643) 0.0652

Two records picked at random from the list so far:
log2 ratio of iodoacetamide-alkyne labeling, inactive:
RANBP2 C105 (UniProt P49792) 0.238
GSS C294 (UniProt P48637) 0.377

Source: the supplement of paper PMC11006884
